Values of other authors, collected in patent publication US20120196830A1, “KITS AND IMPROVED COMPOSITIONS FOR TREATING LOWER URINARY TRACT DISORDERS” (priority 2005, published 2012).
At least one compound was matched to its structure with a doubt left.

Details: cited from earlier work

O=C(NCC1CCCCN1)c1cc(OCC(F)(F)F)ccc1OCC(F)(F)F (stereo not shown) [flecamide]
pH value close to the isoelectric point of the local anesthetic: 9.3
